In the supplement of paper PMC4604168 (melanoma cell lines):
The other results are listed elsewhere or left out. Single values are uncertain, as repeats are few or missing.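 Cells were imaged in 1,536-well plates, and nuclei stained with an antibody against cleaved PARP were counted against all DNA-stained nuclei to give the apoptosis fraction. Screening doses were chosen to leave most cells alive, and resting and induced cleaved-PARP levels differ strongly between cell lines.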

test system: SkMel5; experiment: cleaved PARP positive nuclei fraction relative to DMSO control; melanoma cells; higher = more apoptosis; details: library dose: low library concentration; 72 h

| SMILES | cleaved PARP positive nuclei fraction |
| --- | --- |
| O=C(O)[C@@H]1[O][Sb](=[O])([O][Sb]2(=[O])[O][C@H]([C@H](O)CO)[C@H](O)[C@H](C(=O)O)[O]2)[O][C@H]([C@H](O)CO)[C@@H]1O (stereo not given in full) [stibogluconate] + OCCn1cc(-c2cnc3nnn(Cc4ccc5ncccc5c4)c3n2)cn1 [PF04217903] (first compound 2 µM, partner dose 1 µM) | 42% |
| C[C@@H](Oc1cc(-c2cnn(C3CCNCC3)c2)cnc1N)c1c(Cl)ccc(F)c1Cl [Crizotinib] + Oc1cc(-c2nc(-c3ccccc3)[nH]c2-c2ccncc2)ccc1Cl [L779450] (first compound 0.2 µM, partner dose 0.2 µM) | 156% |
| C[C@@H](Oc1cc(-c2cnn(C3CCNCC3)c2)cnc1N)c1c(Cl)ccc(F)c1Cl [Crizotinib] + CCCCCCCCCCCC1=C(O)C(=O)C=C(O)C1=O [Embelin] (first compound 0.2 µM, partner dose 1.2 µM) | 69.1% |
| Nc1ncn([C@H]2C[C@H](O)[C@@H](CO)O2)c(=O)n1 [decitabine] + O=C(Nc1ccccc1)c1cc([N+](=O)[O-])ccc1Cl [GW9662] (first compound 0.1 µM, partner dose 2 µM) | 205% |
| C[C@@H](Oc1cc(-c2cnn(C3CCNCC3)c2)cnc1N)c1c(Cl)ccc(F)c1Cl [Crizotinib] + O=c1cc(-c2cccc3c2Sc2ccccc2S3)oc(N2CCOCC2)c1 [KU55933] (first compound 0.2 µM, partner dose 1 µM) | 76.3% |
| CS(=O)(=O)CCNCc1ccc(-c2ccc3ncnc(Nc4ccc(OCc5cccc(F)c5)c(Cl)c4)c3c2)o1 [lapatinib] + OCCn1cc(-c2cnc3nnn(Cc4ccc5ncccc5c4)c3n2)cn1 [PF04217903] (first compound 0.8 µM, partner dose 1 µM) | 143% |
| Cc1cc(Nc2cc(N3CCN(C)CC3)nc(/C=C/c3ccccc3)n2)n[nH]1 + N#Cc1c(O)c2c(-c3ccc(-c4ccccc4O)cc3)csc2[nH]c1=O [A769662] (first compound 0.04 µM, partner dose 2 µM) | 253% |
| CCCS(=O)(=O)Nc1ccc(F)c(C(=O)c2c[nH]c3ncc(Cl)cc23)c1F + COc1cc2ncnc(Nc3ccc(Oc4ccccc4)cc3)c2cc1OC [SrcI1] (first compound 0.08 µM, partner dose 2 µM) | 31.2% |
| Nc1nc(F)nc2c1ncn2[C@@H]1O[C@H](CO)[C@@H](O)[C@@H]1O [fludarabine] + CO[C@@H]1[C@H](N(C)C(=O)c2ccccc2)C[C@H]2O[C@]1(C)n1c3ccccc3c3c4c(c5c6ccccc6n2c5c31)C(=O)NC4 [Midostaurin] (first compound 0.2 µM, partner dose 0.08 µM) | 917% |
| Nc1ncn([C@H]2C[C@H](O)[C@@H](CO)O2)c(=O)n1 [decitabine] + O=C(O)c1ccc(-c2c[nH]c3ncc(-c4ccccc4)cc23)cc1C1CCCC1 [GSK650394] (first compound 0.1 µM, partner dose 0.16 µM) | 71.4% |
| CN1CCN(c2ccc3nc(-c4c(N)c5c(F)cccc5[nH]c4=O)[nH]c3c2)CC1 [Dovitinib] + Oc1cc(-c2nc(-c3ccccc3)[nH]c2-c2ccncc2)ccc1Cl [L779450] (first compound 0.1 µM, partner dose 0.2 µM) | 84.5% |
| CS(=O)(=O)CCNCc1ccc(-c2ccc3ncnc(Nc4ccc(OCc5cccc(F)c5)c(Cl)c4)c3c2)o1 [lapatinib] + O=S(=O)(c1ccccc1)N(CC(F)(F)F)c1ccc(C(O)(C(F)(F)F)C(F)(F)F)cc1 [T0901317] (first compound 0.8 µM, partner dose 1.4 µM) | 113% |
| CNC(=O)c1cc(Oc2ccc(NC(=O)Nc3ccc(Cl)c(C(F)(F)F)c3)cc2)ccn1 [sorafenib] + O=C(O)c1ccc(-c2c[nH]c3ncc(-c4ccccc4)cc23)cc1C1CCCC1 [GSK650394] (first compound 0.4 µM, partner dose 0.16 µM) | 79.7% |
| CC(C)C[C@H](NC(=O)[C@H](Cc1ccccc1)NC(=O)c1cnccn1)B(O)O [Bortezomib] + NC(=O)Nc1cc(-c2cccc(F)c2)sc1C(=O)N[C@H]1CCCNC1 [AZD7762] (first compound 0.001 µM, partner dose 0.02 µM) | 32.8% |
| Nc1nc(F)nc2c1ncn2[C@@H]1O[C@H](CO)[C@@H](O)[C@@H]1O [fludarabine] + NCC(=O)Nc1ccc(-n2nc(C(F)(F)F)cc2-c2ccc3c(ccc4ccccc43)c2)cc1 [OSU03012] (first compound 0.2 µM, partner dose 1 µM) | 69.6% |
| CC(C)C[C@H](NC(=O)[C@H](Cc1ccccc1)NC(=O)c1cnccn1)B(O)O [Bortezomib] + COc1cc2c(Oc3ccc4[nH]c(C)cc4c3F)ncnc2cc1OCCCN1CCCC1 [cediranib] (first compound 0.001 µM, partner dose 0.4 µM) | 63.3% |
| CC(C)C[C@H](NC(=O)[C@H](Cc1ccccc1)NC(=O)c1cnccn1)B(O)O [Bortezomib] + C[C@@H]1CCN(C(=O)CC#N)C[C@@H]1N(C)c1ncnc2[nH]ccc12 [CP690550] (first compound 0.001 µM, partner dose 1 µM) | 86.5% |
| Nc1ccn([C@@H]2O[C@H](CO)[C@@H](O)C2(F)F)c(=O)n1 [gemcitabine] + C=CCn1c(=O)c2cnc(Nc3ccc(N4CCN(C)CC4)cc3)nc2n1-c1cccc(C(C)(C)O)n1 [MK1775] (first compound 0.0004 µM, partner dose 0.02 µM) | 88.3% |
| CNC(=O)c1cc(Oc2ccc(NC(=O)Nc3ccc(Cl)c(C(F)(F)F)c3)cc2)ccn1 [sorafenib] + COc1cc2c(Oc3ccc4[nH]c(C)cc4c3F)ncnc2cc1OCCCN1CCCC1 [cediranib] (first compound 0.4 µM, partner dose 0.4 µM) | 223% |
| CNC(=O)c1cc(Oc2ccc(NC(=O)Nc3ccc(Cl)c(C(F)(F)F)c3)cc2)ccn1 [sorafenib] + Cc1ccc(NC(=O)c2cccc(N(C)C)c2)cc1NC(=O)c1ccc(O)cc1 [ZM336372] (first compound 0.4 µM, partner dose 2 µM) | 46.1% |
| C[C@@H](Oc1cc(-c2cnn(C3CCNCC3)c2)cnc1N)c1c(Cl)ccc(F)c1Cl [Crizotinib] + CCN(CC)CCCCNc1ncc2cc(-c3cc(OC)cc(OC)c3)c(NC(=O)NC(C)(C)C)nc2n1 [PD173074] (first compound 0.2 µM, partner dose 0.1 µM) | 81.3% |
| Nc1ncn([C@H]2C[C@H](O)[C@@H](CO)O2)c(=O)n1 [decitabine] + O=c1cc(-c2cccc3c2Sc2ccccc2S3)oc(N2CCOCC2)c1 [KU55933] (first compound 0.1 µM, partner dose 1 µM) | 140% |
| O=C(O)c1ccc2c(c1)nc(Nc1cccc(Cl)c1)c1ccncc12 + O=C(O)c1ccc(-c2c[nH]c3ncc(-c4ccccc4)cc23)cc1C1CCCC1 [GSK650394] (first compound 0.4 µM, partner dose 0.16 µM) | 83% |
| Cc1cc(Nc2cc(N3CCN(C)CC3)nc(/C=C/c3ccccc3)n2)n[nH]1 + C=CCn1c(=O)c2cnc(Nc3ccc(N4CCN(C)CC4)cc3)nc2n1-c1cccc(C(C)(C)O)n1 [MK1775] (first compound 0.04 µM, partner dose 0.02 µM) | 68.3% |
| Nc1ccn([C@@H]2O[C@H](CO)[C@@H](O)C2(F)F)c(=O)n1 [gemcitabine] + O=C(Nc1cccc(Cl)c1)Nc1ncc(CCNc2ncnc3ccsc23)s1 [SNS314] (first compound 0.0004 µM, partner dose 0.0008 µM) | 32.1% |
| C[C@@H](Oc1cc(-c2cnn(C3CCNCC3)c2)cnc1N)c1c(Cl)ccc(F)c1Cl [Crizotinib] + CO[C@@H]1[C@H](N(C)C(=O)c2ccccc2)C[C@H]2O[C@]1(C)n1c3ccccc3c3c4c(c5c6ccccc6n2c5c31)C(=O)NC4 [Midostaurin] (first compound 0.2 µM, partner dose 0.08 µM) | 71.5% |
| CC(C)C[C@H](NC(=O)[C@H](Cc1ccccc1)NC(=O)c1cnccn1)B(O)O [Bortezomib] + COc1ccc2c(c1)CCC1C2CCC2(C)C(NCCCCCCN3C(=O)C=CC3=O)CCC12 [U73122] (first compound 0.001 µM, partner dose 0.4 µM) | 80.4% |
| Nc1ccn([C@@H]2O[C@H](CO)[C@@H](O)C2(F)F)c(=O)n1 [gemcitabine] + OCCn1cc(-c2cnc3nnn(Cc4ccc5ncccc5c4)c3n2)cn1 [PF04217903] (first compound 0.0004 µM, partner dose 1 µM) | 43.5% |
| CNC(=O)c1cc(Oc2ccc(NC(=O)Nc3ccc(Cl)c(C(F)(F)F)c3)cc2)ccn1 [sorafenib] + CO[C@@H]1[C@H](N(C)C(=O)c2ccccc2)C[C@H]2O[C@]1(C)n1c3ccccc3c3c4c(c5c6ccccc6n2c5c31)C(=O)NC4 [Midostaurin] (first compound 0.4 µM, partner dose 0.08 µM) | 276% |
| O=C(O)[C@@H]1[O][Sb](=[O])([O][Sb]2(=[O])[O][C@H]([C@H](O)CO)[C@H](O)[C@H](C(=O)O)[O]2)[O][C@H]([C@H](O)CO)[C@@H]1O (stereo not given in full) [stibogluconate] + Cc1ccc(NC(=O)c2cccc(N(C)C)c2)cc1NC(=O)c1ccc(O)cc1 [ZM336372] (first compound 2 µM, partner dose 2 µM) | 64.3% |

As a working copy, part of the list above.

| SMILES | cleaved PARP positive nuclei fraction |
| --- | --- |
| C[C@@H](Oc1cc(-c2cnn(C3CCNCC3)c2)cnc1N)c1c(Cl)ccc(F)c1Cl [Crizotinib] + Oc1cc(-c2nc(-c3ccccc3)[nH]c2-c2ccncc2)ccc1Cl [L779450] (first compound 0.2 µM, partner dose 0.2 µM) | 156% |
| C[C@@H](Oc1cc(-c2cnn(C3CCNCC3)c2)cnc1N)c1c(Cl)ccc(F)c1Cl [Crizotinib] + CCCCCCCCCCCC1=C(O)C(=O)C=C(O)C1=O [Embelin] (first compound 0.2 µM, partner dose 1.2 µM) | 69.1% |
